The list shows a part of the results. Repeats are few or missing, and single values can be far off.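 Imaging used 1,536-well plates; nuclei positive for cleaved PARP by antibody were divided by total DNA-stained nuclei to yield the apoptosis fraction. Doses for screening kept most cells viable, and cell lines differ markedly in resting and induced cleaved-PARP levels.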

This assay concerns UACC62. Put plainly: cleaved PARP positive nuclei fraction relative to DMSO control; melanoma cells; higher = more apoptosis. The following applies: library dose: low library concentration; 72 h.
With `Oc1cc(-c2nc(-c3ccccc3)[nH]c2-c2ccncc2)ccc1Cl` + O=C(Oc1ccc([N+](=O)[O-])cc1)N1CCC(C(O)(c2ccc3c(c2)OCO3)c2ccc3c(c2)OCO3)CC1 [JZL184] (first compound 0.2 µM, partner dose 1 µM), the “cleaved PARP positive nuclei fraction” value came to 258%.

For the compound `C[C@]12O[C@H](C[C@]1(O)CO)n1c3ccccc3c3c4c(c5c6ccccc6n2c5c31)CNC4=O` [Lestaurtinib] + O=S(=O)(c1ccccc1)N(CC(F)(F)F)c1ccc(C(O)(C(F)(F)F)C(F)(F)F)cc1 [T0901317] (first compound 0.004 µM, partner dose 1.4 µM), the “cleaved PARP positive nuclei fraction” value amounted to 90%.

Turning to `NCC(=O)Nc1ccc(-n2nc(C(F)(F)F)cc2-c2ccc3c(ccc4ccccc43)c2)cc1` + O=C(Oc1ccc([N+](=O)[O-])cc1)N1CCC(C(O)(c2ccc3c(c2)OCO3)c2ccc3c(c2)OCO3)CC1 [JZL184] (first compound 1 µM, partner dose 1 µM), the “cleaved PARP positive nuclei fraction” value came to 22.6%.

Regarding `C[C@@H]1CCN(C(=O)CC#N)C[C@@H]1N(C)c1ncnc2[nH]ccc12` + C/C(O)=C(\C#N)C(=O)Nc1cc(Br)ccc1Br [LFM-A13] (first compound 1 µM, partner dose 2 µM), the “cleaved PARP positive nuclei fraction” value stood at 123%.

Turning to `C[As](C)SC[C@H](NC(=O)CC[C@H](N)C(=O)O)C(=O)NCC(=O)O` [Darinaparsin] + O=C(Nc1ccccc1)c1cc([N+](=O)[O-])ccc1Cl [GW9662] (first compound 0.4 µM, partner dose 2 µM), the “cleaved PARP positive nuclei fraction” value came to 36.3%.

With `C[C@]12O[C@H](C[C@]1(O)CO)n1c3ccccc3c3c4c(c5c6ccccc6n2c5c31)CNC4=O` [Lestaurtinib] + O=C(O)c1ccc(-c2c[nH]c3ncc(-c4ccccc4)cc23)cc1C1CCCC1 [GSK650394] (first compound 0.004 µM, partner dose 0.16 µM), the “cleaved PARP positive nuclei fraction” value worked out at 120%.

Regarding `C[C@]12O[C@H](C[C@]1(O)CO)n1c3ccccc3c3c4c(c5c6ccccc6n2c5c31)CNC4=O` [Lestaurtinib] + Oc1cc(-c2nc(-c3ccccc3)[nH]c2-c2ccncc2)ccc1Cl [L779450] (first compound 0.004 µM, partner dose 0.2 µM), the “cleaved PARP positive nuclei fraction” value came to 305%.

For `COc1ccc2c(c1)CCC1C2CCC2(C)C(NCCCCCCN3C(=O)C=CC3=O)CCC12` (stereo not drawn) + C/C(O)=C(\C#N)C(=O)Nc1cc(Br)ccc1Br [LFM-A13] (first compound 0.4 µM, partner dose 2 µM), the “cleaved PARP positive nuclei fraction” value was 171%.

As to `Cc1cc(SCc2sc(-c3ccc(C(F)(F)F)c(F)c3)nc2C)ccc1OCC(=O)O` + C/C(O)=C(\C#N)C(=O)Nc1cc(Br)ccc1Br [LFM-A13] (first compound 2 µM, partner dose 2 µM), the “cleaved PARP positive nuclei fraction” value is 40.5%.

`COC(=O)c1sccc1S(=O)(=O)Nc1ccc(Nc2ccccc2)cc1OC` + C/C(O)=C(\C#N)C(=O)Nc1cc(Br)ccc1Br [LFM-A13] (first compound 1 µM, partner dose 2 µM): the “cleaved PARP positive nuclei fraction” value came to 70.7%.

As to `O=C(O)c1ccc(-c2c[nH]c3ncc(-c4ccccc4)cc23)cc1C1CCCC1` + O=C(Oc1ccc([N+](=O)[O-])cc1)N1CCC(C(O)(c2ccc3c(c2)OCO3)c2ccc3c(c2)OCO3)CC1 [JZL184] (first compound 0.16 µM, partner dose 1 µM), the “cleaved PARP positive nuclei fraction” value was 42.6%.

As for `C[C@@H]1CCN(C(=O)CC#N)C[C@@H]1N(C)c1ncnc2[nH]ccc12` + Cc1cc(SCc2sc(-c3ccc(C(F)(F)F)c(F)c3)nc2C)ccc1OCC(=O)O [GW0742] (first compound 1 µM, partner dose 2 µM), the “cleaved PARP positive nuclei fraction” value stood at 54.4%.

`O=C(Nc1cccc(Cl)c1)Nc1ncc(CCNc2ncnc3ccsc23)s1` + Cc1cc(SCc2sc(-c3ccc(C(F)(F)F)c(F)c3)nc2C)ccc1OCC(=O)O [GW0742] (first compound 0.0008 µM, partner dose 2 µM): the “cleaved PARP positive nuclei fraction” value worked out at 78.7%.

In the case of `C[C@]12O[C@H](C[C@]1(O)CO)n1c3ccccc3c3c4c(c5c6ccccc6n2c5c31)CNC4=O` [Lestaurtinib] + COc1cc2ncnc(Nc3ccc(Oc4ccccc4)cc3)c2cc1OC [SrcI1] (first compound 0.004 µM, partner dose 2 µM), the “cleaved PARP positive nuclei fraction” value came out at 178%.

In the case of `C[As](C)SC[C@H](NC(=O)CC[C@H](N)C(=O)O)C(=O)NCC(=O)O` [Darinaparsin] + COc1ccc(COc2ccc(Cc3cnc(N)nc3N)cc2OC)cc1 [GW2580] (first compound 0.4 µM, partner dose 1 µM), the “cleaved PARP positive nuclei fraction” value worked out at 48.6%.

With `C[C@]12O[C@H](C[C@]1(O)CO)n1c3ccccc3c3c4c(c5c6ccccc6n2c5c31)CNC4=O` [Lestaurtinib] + COc1ccc(-c2ccc3c(N4CCOCC4)nc(N4C[C@@H](C)O[C@@H](C)C4)nc3n2)cc1CO [KU0063794] (first compound 0.004 µM, partner dose 0.02 µM), the “cleaved PARP positive nuclei fraction” value amounted to 98.4%.

As for `O=S(=O)(c1ccccc1)N(CC(F)(F)F)c1ccc(C(O)(C(F)(F)F)C(F)(F)F)cc1` + Cc1cc(SCc2sc(-c3ccc(C(F)(F)F)c(F)c3)nc2C)ccc1OCC(=O)O [GW0742] (first compound 1.4 µM, partner dose 2 µM), the “cleaved PARP positive nuclei fraction” value was found to be 234%.

With `COc1ccc(COc2ccc(Cc3cnc(N)nc3N)cc2OC)cc1` + Cc1cc(SCc2sc(-c3ccc(C(F)(F)F)c(F)c3)nc2C)ccc1OCC(=O)O [GW0742] (first compound 1 µM, partner dose 2 µM), the “cleaved PARP positive nuclei fraction” value stood at 78%.

For the compound `C[As](C)SC[C@H](NC(=O)CC[C@H](N)C(=O)O)C(=O)NCC(=O)O` [Darinaparsin] + CCc1ccc(CCOc2ccc(CC3SC(=O)NC3=O)cc2)nc1 [pioglitazone] (first compound 0.4 µM, partner dose 2 µM), the “cleaved PARP positive nuclei fraction” value was 158%.

`O=C(Oc1ccc([N+](=O)[O-])cc1)N1CCC(C(O)(c2ccc3c(c2)OCO3)c2ccc3c(c2)OCO3)CC1` + CC(C)CCN1c2nc(Nc3cc(F)c(O)c(F)c3)ncc2N(C)C(=O)C1C [BID1870] (first compound 1 µM, partner dose 0.2 µM): the “cleaved PARP positive nuclei fraction” value was 82.8%.

As to `CO[C@H]1C[C@@H]2CC[C@@H](C)[C@@](O)(O2)C(=O)C(=O)N2CCCC[C@H]2C(=O)O[C@H]([C@H](C)C[C@@H]2CC[C@@H](OCCO)[C@H](OC)C2)CC(=O)[C@H](C)/C=C(\C)[C@@H](O)[C@@H](OC)C(=O)[C@H](C)C[C@H](C)/C=C/C=C/C=C/1C` [everolimus] + Cc1cc(SCc2sc(-c3ccc(C(F)(F)F)c(F)c3)nc2C)ccc1OCC(=O)O [GW0742] (first compound 0.02 µM, partner dose 2 µM), the “cleaved PARP positive nuclei fraction” value was determined as 121%.

For `COc1cc(Nc2ncc(F)c(Nc3ccc4c(n3)NC(=O)C(C)(C)O4)n2)cc(OC)c1OC` [Tamatinib] + O=C(Oc1ccc([N+](=O)[O-])cc1)N1CCC(C(O)(c2ccc3c(c2)OCO3)c2ccc3c(c2)OCO3)CC1 [JZL184] (first compound 0.4 µM, partner dose 1 µM), the “cleaved PARP positive nuclei fraction” value came to 41.7%.

On to `COc1cc2ncnc(Nc3ccc(Oc4ccccc4)cc3)c2cc1OC` + O=C(Oc1ccc([N+](=O)[O-])cc1)N1CCC(C(O)(c2ccc3c(c2)OCO3)c2ccc3c(c2)OCO3)CC1 [JZL184] (first compound 2 µM, partner dose 1 µM), for which the “cleaved PARP positive nuclei fraction” value turned out to be 52.7%.

For the compound `C/C(O)=C(\C#N)C(=O)Nc1cc(Br)ccc1Br` + O=C(Oc1ccc([N+](=O)[O-])cc1)N1CCC(C(O)(c2ccc3c(c2)OCO3)c2ccc3c(c2)OCO3)CC1 [JZL184] (first compound 2 µM, partner dose 1 µM), the “cleaved PARP positive nuclei fraction” value is 70.3%.

`C/C(O)=C(\C#N)C(=O)Nc1cc(Br)ccc1Br` + CC(C)CCN1c2nc(Nc3cc(F)c(O)c(F)c3)ncc2N(C)C(=O)C1C [BID1870] (first compound 2 µM, partner dose 0.2 µM): the “cleaved PARP positive nuclei fraction” value was determined as 90%.

`N#Cc1c(O)c2c(-c3ccc(-c4ccccc4O)cc3)csc2[nH]c1=O` + C/C(O)=C(\C#N)C(=O)Nc1cc(Br)ccc1Br [LFM-A13] (first compound 2 µM, partner dose 2 µM): the “cleaved PARP positive nuclei fraction” value was 153%.

For the compound `C[C@]12O[C@H](C[C@]1(O)CO)n1c3ccccc3c3c4c(c5c6ccccc6n2c5c31)CNC4=O` [Lestaurtinib] + C[C@@H]1CCN(C(=O)CC#N)C[C@@H]1N(C)c1ncnc2[nH]ccc12 [CP690550] (first compound 0.004 µM, partner dose 1 µM), the “cleaved PARP positive nuclei fraction” value stood at 85.4%.

For `Cc1ccc(NC(=O)c2cccc(N(C)C)c2)cc1NC(=O)c1ccc(O)cc1` + C/C(O)=C(\C#N)C(=O)Nc1cc(Br)ccc1Br [LFM-A13] (first compound 2 µM, partner dose 2 µM), the “cleaved PARP positive nuclei fraction” value amounted to 66.6%.

These data come from the supplement of paper PMC4604168 (melanoma cell lines).
